Reference: PubChem BioAssay AID651640 (Broad Institute, 2012)
Several values for one entry are separate records, joined by “and”; a condition that tells them apart may be missing. Identical values can stand only once. Hit rate of the full screen: of about 350,000 compounds, about 6,000 (1.7%) were called active. The inconclusive results got no clear call from the source; some entries with a clear call stand among them for comparison. No stated cut-off is given here; in the data, active means CPE inhibition above about 20% (passing the limit was not always enough); inconclusive means no clear call, values can overlap the other calls; tested in BHK-21 cells.

Assay: protection of cells from dengue 2 killing – plate reader, single concentration, primary screen (AID 651640);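 further: 0% = median of neutral control wells and 100% = median of positive control wells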
Conditions: DENV2-infected cells, cytopathic effect rescue, at 9.99 µM, stronger effect = higher value

| SMILES | CPE inhibition |
| --- | --- |
| Cc1cccc(OCC(=O)N(C)CC(=O)Nc2cccc(F)c2)c1C | inconclusive: 21.6% |
| CC(C)NC(=O)N(C)C[C@H]1OCCCC[C@H](C)Oc2ccc(NC(=O)NC3CCCCC3)cc2C(=O)N([C@H](C)CO)C[C@@H]1C | inconclusive: 41.8% |
| C[C@@H]1CCCCO[C@@H](CN(C)Cc2ccc3c(c2)OCO3)[C@@H](C)CN([C@H](C)CO)C(=O)c2cc(NC(=O)Nc3ccc4c(c3)OCO4)ccc2O1 | inactive: 7.81% |
| C[C@@H]1CN([C@H](C)CO)C(=O)c2cccc(NC(=O)c3ccc(-c4nccs4)cc3)c2O[C@@H]1CN(C)C(=O)NC1CCCCC1 | inconclusive: 34.9% |
| C[C@@H]1CN([C@H](C)CO)C(=O)CCCn2nncc2CO[C@@H]1CN(C)Cc1ccccc1C(F)(F)F | inconclusive: 23.8% |
| OC[C@@H]1[C@H](c2ccc(Br)cc2)[C@H]2CNCCCCN12 | inconclusive: 29.3% |
| C[C@@H]1CCCCO[C@H](CN(C)C(=O)C2CCCCC2)[C@H](C)CN([C@@H](C)CO)C(=O)c2cc(NC(=O)Cc3ccccc3)ccc2O1 | inconclusive: 28.7% |
| C[C@@H]1CN([C@@H](C)CO)C(=O)Cc2cc(NS(=O)(=O)c3ccc(F)cc3)ccc2O[C@@H]1CN(C)Cc1ccc(Oc2ccccc2)cc1 | inactive: -0.588% |
| Cc1c(C)n(C)c2ccc(C(=O)NCCN3CCOCC3)cc12 | inactive: 7.97% |
| O=C(NNc1ccccc1[N+](=O)[O-])Nc1ccc(F)cc1F | inconclusive: 33.5% |
| CO[C@@H]1CN(C)C(=O)c2ccc(NC(C)=O)cc2OC[C@@H](C)N(C(=O)Cc2cccnc2)C[C@H]1C | inconclusive: 20.2% |
| COc1ccc(NC(=O)NC[C@H]2CC[C@H]3[C@H](CN3Cc3ccccc3C(=O)O)O2)cc1 | inconclusive: 37.1% |
| COc1ccc(NC(=O)CCNS(=O)(=O)c2cc(Br)cnc2N)c(OC)c1 | inactive: -3.14% |
| Cc1cccc(CSCCNC(=O)CN2C(=O)c3ccccc3S2(=O)=O)c1 | inconclusive: 23.3% |
| Cc1ccc2c(CSc3nc4ccccc4c(=O)n3CCCO)cc(=O)oc2c1 | inconclusive: 32.4% |
| CCOc1ccccc1NC(=O)C1CCCN(S(=O)(=O)c2ccc3c(c2)CCCN3C(C)=O)C1 (configuration not stated) | inconclusive: 38.1% |
| O=C(C=Cc1ccccc1)c1cc(Br)ccc1O | inactive: -4.58% |
| CCCCN(C(=O)COc1ccc(F)cc1)c1c(N)n(CC(C)C)c(=O)[nH]c1=O | inconclusive: 25.7% |
| Cc1noc(C)c1NC(=O)Nc1ccc2c(c1)C(=O)N([C@@H](C)CO)C[C@H](C)[C@H](CN(C)Cc1ccc(C(F)(F)F)cc1)OCCCC[C@H](C)O2 | inactive: -7.82% |
| O=C(C[C@@H]1C=C[C@@H](NC(=O)c2ccncc2)[C@H](CO)O1)Nc1ccccc1 | active: 34.7% |
| CCOc1ccc(NC(=O)NNC(=O)c2cc3ccccc3cc2O)cc1 | inactive: 2.23% |
| CCn1cc(S(=O)(=O)CC(=O)N2CCc3ccccc32)c2ccccc21 | inconclusive: 36.5% |
| CCOC(=O)C1CSCCS(=O)(=O)N1Cc1cc(F)ccc1Br (configuration not stated) | inconclusive: 21.3% |
| O=C(c1ccc2c(c1)OCO2)N1CC[C@@H]2[C@H]1c1cc(-c3ccccc3)ccc1N[C@@H]2CO | inconclusive: 64.2% |

| SMILES | CPE inhibition |
| --- | --- |
| C[C@@H]1CN([C@@H](C)CO)C(=O)c2cc(NC(=O)NC3CCCCC3)ccc2O[C@@H](C)CCCCO[C@H]1CN(C)Cc1ccc2c(c1)OCO2 | active: 45% |
| CC(C)(C)OC(=O)C[C@@H]1C/C=C\C[C@H](CC(=O)NCCO)C(=O)N2CCC[C@H]2COC1=O | active: 82.6% |
| Cc1cc(N2CCNC[C@@H]2C)ccc1N1C[C@@H](C)O[C@@H](C)C1 | inconclusive: 38.5% |
| CCN1[C@@H]2c3ccc(-c4ccc(F)cc4)c(=O)n3C[C@@H]2[C@@H](CO)[C@@H]1C(=O)N(C)C | inactive: -1.79% |
| C[C@@H]1CN([C@@H](C)CO)C(=O)c2cc(NC(=O)CCC(F)(F)F)ccc2O[C@H]1CN(C)Cc1ccc(C(=O)O)cc1 | inactive: 10.6% |
| O=C(C[C@H]1CC[C@@H](NC(=O)CC2CC2)[C@@H](CO)O1)NCc1ccccc1 | inactive: 3.95% |
| COc1ccccc1NC(=S)N(CCCN1CCOCC1)Cc1cn(C)c2ccccc12 | inconclusive: 20.3% |
| COc1ccc(Cc2c(-c3ccccc3)nc3cc(C)c(Br)c(C)n23)c(C)c1 | inconclusive: 28.2% |
| Cc1[nH]c2ccc(C(=O)OCC(=O)NC3(C#N)CCCCC3)cc2c1C | inconclusive: 26.3% |
| C[C@H](CO)N1C[C@H](C)[C@@H](CN(C)Cc2ccc(Oc3ccccc3)cc2)Oc2c(NC(=O)Nc3ccc(C(F)(F)F)cc3)cccc2C1=O | active: 24.2% |
| C[C@@H]1CN([C@H](C)CO)C(=O)c2cc(NC(=O)Nc3cccc4ccccc34)ccc2O[C@@H](C)CCCCO[C@H]1CN(C)Cc1ccc2c(c1)OCO2 | inactive: -23.5% |
| Cc1ccc(NC(=O)c2cccnc2)cc1C | inconclusive: 25.8% |
| CC(C)CC#Cc1ccc([C@H]2[C@H]3CN(C(=O)Cc4ccccc4)CC(=O)N3[C@H]2CO)cc1 | inactive: 8.4% |
| COc1cc(Br)cc(CN2CCN(C/C=C/c3ccccc3)CC2)c1O | inactive: 2.17% |
| Cc1ccc(-c2ccc([C@@H]3[C@@H](CO)N4C(=O)CN(C(=O)c5ccc(F)cc5)C[C@H]34)cc2)cc1 | inconclusive: 36.8% |
| COc1ccccc1-c1c(-c2ccc(O)cc2O)n[nH]c1C(F)(F)F | inconclusive: 32.1% |
| CO[C@@H]1CC[C@@H]2CCN(C)C(=O)[C@@H](C)CN(C)C(=O)c3cc(C#N)ccc3OC[C@H]1O2 | inconclusive: 24.4% |
| N#C/C(=N\Nc1ccc(F)cc1)C(=O)C1CC1 | inactive: 8.24% |
| CCc1nnc(NC(=O)c2nc(S(=O)(=O)Cc3ccccc3)ncc2Cl)s1 | inactive: 14.9% |
| C[C@@H]1CCCCO[C@H](CN(C)C(=O)NC2CCCCC2)[C@H](C)CN([C@H](C)CO)C(=O)c2cc(NC(=O)Nc3ccc(C(F)(F)F)cc3)ccc2O1 | active: 30.7% |
| NC(=O)c1ccsc1NC(=O)COC(=O)c1nc(Cl)ccc1Cl | inconclusive: 36.5% |
| CO[C@@H]1CN(C)C(=O)c2ccc(NS(=O)(=O)c3ccccc3)cc2OC[C@@H](C)N(Cc2ccccn2)C[C@H]1C | inactive: 17.9% |
| CC(C)NC(=O)Nc1ccc2c(c1)C(=O)N(C)[C@@H]1CC[C@H](CC(=O)NCC3CCCCC3)O[C@@H]1CO2 | inconclusive: 73% |
| Cc1c(C(=O)N2CCc3ccccc3C2)oc2ccc(S(=O)(=O)N3CC(C)CC(C)C3)cc12 (configuration not stated) | inconclusive: 34.7% |

| SMILES | CPE inhibition |
| --- | --- |
| C[C@@H]1CCCCO[C@H](CN(C)Cc2ccccc2)[C@@H](C)CN([C@H](C)CO)C(=O)c2cc(NC(=O)c3ccccc3)ccc2O1 | inactive: -9.2% and inactive: 0.363% |
| Cn1cc(SCC(=O)N2CCOCC2)c2ccccc21 | inconclusive: 26.9% |
| CCC(c1ccccc1)C(CC)c1cc(O)c(O)c(O)c1 (configuration not stated) | inactive: 9.81% |
| COc1ccccc1-c1cnc2c(c1)C(=O)N([C@H](C)CO)C[C@@H](C)[C@H](CN(C)Cc1cccnc1)O2 | active: 26.5% |
| CCc1ccc(N(CC(=O)N2CCCC2)S(C)(=O)=O)cc1 | inconclusive: 27.5% |
| C[C@@H](O)C#Cc1ccc([C@@H]2[C@H](CO)N3CCCCN(C(=O)Nc4ccccc4)C[C@@H]23)cc1 | inconclusive: 30.9% |
| Cc1nc(N)sc1-c1ccccc1 | inconclusive: 51.5% |
| O=C(NN=Cc1ccccc1O)c1cccc([N+](=O)[O-])c1 | inactive: 13.6% |
| Cc1ccccc1S(=O)(=O)N[C@@H]1CC[C@H](CCn2cc(-c3ccccc3)nn2)O[C@@H]1CO | active: 20.8% |
| COc1ccc(CCc2nnc(N)s2)cc1OC | inconclusive: 26.3% |
| Cc1ccccc1Nc1ncnc2c1cnn2-c1ccccc1 | inconclusive: 30.3% |
| CC(C)[C@@H]1CC2=C(C(=O)OC(C)(C)O2)[C@H](CCc2ccccc2)O1 | active: 42% |
| COc1ccc2c(c1OC)C(=O)OC2 | inconclusive: 36.4% |
| CC(C)NC(=O)Nc1ccc2c(c1)C(=O)N([C@H](C)CO)C[C@@H](C)[C@@H](CN(C)Cc1ccncc1)OCCCC[C@@H](C)O2 | inactive: 11.6% |
| COc1ccccc1CNC(=O)COC(=O)c1ccco1 | inconclusive: 23% |
| CC(C)(C)NC(=O)C1c2ccccc2OCC(=O)N1Cc1ccc2c(c1)OCO2 (configuration not stated) | inconclusive: 54.5% |
| Nc1nc(N)nc(C2C=CCCC2)n1 (configuration not stated) | inconclusive: 47.3% |
| COc1cc(OC)cc(C(=O)NC(=S)NCCc2ccccc2)c1 | inconclusive: 30.2% |
| COc1cccc(NC(=O)c2cc(CN3C(=O)c4ccccc4C3=O)ccc2OC)c1 | inconclusive: 24.8% |
| CCCNC(=O)N1C[C@H]2[C@@H](c3ccccc31)[C@@H](CO)N2Cc1ccc(OC)cc1 | inactive: 1.45% |
| C[C@@H]1CN([C@@H](C)CO)C(=O)c2cc(NS(=O)(=O)c3ccccc3)ccc2O[C@@H]1CN(C)C(=O)Nc1ccccc1 | inactive: -7.49% |
| Cc1ccc(S(=O)(=O)N(C)C[C@@H]2Oc3ccc(NC(=O)Nc4ccccc4)cc3C(=O)N([C@@H](C)CO)C[C@@H]2C)cc1 | inactive: -12.7% |
| CCCN(C)C[C@@H]1Oc2ncc(-c3cc4ccccc4o3)cc2C(=O)N([C@H](C)CO)C[C@@H]1C | inconclusive: 22.6% |
| COCCOC(=O)N1C(=O)[C@@]2(c3cc(C#CCCO)ccc31)[C@H](C(N)=O)[C@H]1C(=O)O[C@H](c3ccccc3)[C@H](c3ccccc3)N1[C@@H]2c1ccc(OCCO)cc1 | inactive: 1.11% |
